Laboratory results: US20090074867A1, “ORALLY DISPERSIBLE PHARMACEUTICAL COMPOSITION AND PROCESS FOR THE PREPARATION THEREOF” (priority 2004, published 2009)

Experiment: Evaluation of palatability, 5 individuals sensitive to the irritating action of ibuprofen
Format: in vivo, persons
Parameters: key: strong (3); medium (2); weak (1); zero (0)
Conditions: 200 mg active ingredient, score per individual 1-5, higher = worse

CC(C)Cc1ccc(C(C)C(=O)O)cc1 (centres unmarked) [Ibuprofen BP 80, Ibuprofen]
Burning t0 (t0 when placed in the mouth): 3 | Dullness t0 (t0 when placed in the mouth): 3 (3×) and 2 (2×) | Prickling t0 (t0 when placed in the mouth): 3 | Sandiness t0 (t0 when placed in the mouth): 2 (2×) and 1 (3×) | Tingling t0 (t0 when placed in the mouth): 3 | Burning t1 (t1 during swallowing): 3 | Dullness t1 (t1 during swallowing): 2 (3×) and 3 (2×) | Prickling t1 (t1 during swallowing): 3 (4×) and 2 | Sandiness t1 (t1 during swallowing): 1 | Tingling t1 (t1 during swallowing): 2 (2×) and 3 (3×) | Burning t2 (t2 after swallowing): 2 (2×) and 3 (2×) and 1 | Dullness t2 (t2 after swallowing): 1 (3×) and 2 (2×) | Prickling t2 (t2 after swallowing): 2 and 3 (2×) and 1 (2×) | Sandiness t2 (t2 after swallowing): 0 | Tingling t2 (t2 after swallowing): 2 (2×) and 3 and 1 (2×) | Burning t3 (t3 after 5 minutes): 1 (3×) and 3 and 2 | Dullness t3 (t3 after 5 minutes): 0 (3×) and 1 (2×) | Prickling t3 (t3 after 5 minutes): 0 (2×) and 2 (2×) and 1 | Sandiness t3 (t3 after 5 minutes): 0 | Tingling t3 (t3 after 5 minutes): 2 and 1 (2×) and 0 (2×)

Several values for one entry are separate records, joined by “and”; a condition that tells them apart may be missing. Identical values can stand only once.
